Holding throughout (test): PRISMA enrichment of interactor (LFQ) in peptide spot vs all other peptide spots (log2 fold change); higher = stronger / more specific binding of the interactor to the peptide
Substrate in test [1]: CP, P00450
The protocol:
(§1)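 PRISMA: 15-aa overlapping tiles (offset 8 aa) of 60 microproteins, plus SOS1/GLUT1 control peptides, were spot-synthesized on cellulose membranes in triplicate. Membranes were incubated with benzonase-treated HEK293T lysate, and bound proteins were identified by LC-MS/MS with LFQ. Enrichment is the log2 fold change of each protein in one spot versus all other spots. Only interactors passing the significance cutoff are listed.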

Chains of the proteins cited; added tags and fusions are not shown.
IGF2BP3, O00425, UniProt O00425, whole entry: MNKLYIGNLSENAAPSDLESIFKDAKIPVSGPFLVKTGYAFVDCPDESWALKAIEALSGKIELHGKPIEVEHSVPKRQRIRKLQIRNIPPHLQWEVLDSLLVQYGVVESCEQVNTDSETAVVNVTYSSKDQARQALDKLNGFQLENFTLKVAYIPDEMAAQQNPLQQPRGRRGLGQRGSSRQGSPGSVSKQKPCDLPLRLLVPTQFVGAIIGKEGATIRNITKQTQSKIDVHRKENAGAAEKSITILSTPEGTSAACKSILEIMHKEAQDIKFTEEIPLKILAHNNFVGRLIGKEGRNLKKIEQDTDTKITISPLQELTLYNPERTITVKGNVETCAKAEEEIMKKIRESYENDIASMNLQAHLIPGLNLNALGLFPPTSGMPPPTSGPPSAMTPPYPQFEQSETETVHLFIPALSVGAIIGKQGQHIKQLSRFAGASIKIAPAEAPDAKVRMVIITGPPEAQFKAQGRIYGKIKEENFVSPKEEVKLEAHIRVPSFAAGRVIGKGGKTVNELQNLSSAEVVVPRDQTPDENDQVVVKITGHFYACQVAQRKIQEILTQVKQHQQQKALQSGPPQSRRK
COX6B1, P14854, UniProt P14854, whole entry: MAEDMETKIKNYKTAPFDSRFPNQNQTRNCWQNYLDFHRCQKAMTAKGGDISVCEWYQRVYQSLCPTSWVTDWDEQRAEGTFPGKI
NDUFS8, O00217, UniProt O00217, whole entry: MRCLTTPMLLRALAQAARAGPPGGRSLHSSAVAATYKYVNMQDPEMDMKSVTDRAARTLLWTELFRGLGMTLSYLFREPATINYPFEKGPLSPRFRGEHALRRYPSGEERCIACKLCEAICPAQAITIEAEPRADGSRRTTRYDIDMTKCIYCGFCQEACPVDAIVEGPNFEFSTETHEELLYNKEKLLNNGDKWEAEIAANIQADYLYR
GBF1, Q92538, UniProt Q92538, whole entry: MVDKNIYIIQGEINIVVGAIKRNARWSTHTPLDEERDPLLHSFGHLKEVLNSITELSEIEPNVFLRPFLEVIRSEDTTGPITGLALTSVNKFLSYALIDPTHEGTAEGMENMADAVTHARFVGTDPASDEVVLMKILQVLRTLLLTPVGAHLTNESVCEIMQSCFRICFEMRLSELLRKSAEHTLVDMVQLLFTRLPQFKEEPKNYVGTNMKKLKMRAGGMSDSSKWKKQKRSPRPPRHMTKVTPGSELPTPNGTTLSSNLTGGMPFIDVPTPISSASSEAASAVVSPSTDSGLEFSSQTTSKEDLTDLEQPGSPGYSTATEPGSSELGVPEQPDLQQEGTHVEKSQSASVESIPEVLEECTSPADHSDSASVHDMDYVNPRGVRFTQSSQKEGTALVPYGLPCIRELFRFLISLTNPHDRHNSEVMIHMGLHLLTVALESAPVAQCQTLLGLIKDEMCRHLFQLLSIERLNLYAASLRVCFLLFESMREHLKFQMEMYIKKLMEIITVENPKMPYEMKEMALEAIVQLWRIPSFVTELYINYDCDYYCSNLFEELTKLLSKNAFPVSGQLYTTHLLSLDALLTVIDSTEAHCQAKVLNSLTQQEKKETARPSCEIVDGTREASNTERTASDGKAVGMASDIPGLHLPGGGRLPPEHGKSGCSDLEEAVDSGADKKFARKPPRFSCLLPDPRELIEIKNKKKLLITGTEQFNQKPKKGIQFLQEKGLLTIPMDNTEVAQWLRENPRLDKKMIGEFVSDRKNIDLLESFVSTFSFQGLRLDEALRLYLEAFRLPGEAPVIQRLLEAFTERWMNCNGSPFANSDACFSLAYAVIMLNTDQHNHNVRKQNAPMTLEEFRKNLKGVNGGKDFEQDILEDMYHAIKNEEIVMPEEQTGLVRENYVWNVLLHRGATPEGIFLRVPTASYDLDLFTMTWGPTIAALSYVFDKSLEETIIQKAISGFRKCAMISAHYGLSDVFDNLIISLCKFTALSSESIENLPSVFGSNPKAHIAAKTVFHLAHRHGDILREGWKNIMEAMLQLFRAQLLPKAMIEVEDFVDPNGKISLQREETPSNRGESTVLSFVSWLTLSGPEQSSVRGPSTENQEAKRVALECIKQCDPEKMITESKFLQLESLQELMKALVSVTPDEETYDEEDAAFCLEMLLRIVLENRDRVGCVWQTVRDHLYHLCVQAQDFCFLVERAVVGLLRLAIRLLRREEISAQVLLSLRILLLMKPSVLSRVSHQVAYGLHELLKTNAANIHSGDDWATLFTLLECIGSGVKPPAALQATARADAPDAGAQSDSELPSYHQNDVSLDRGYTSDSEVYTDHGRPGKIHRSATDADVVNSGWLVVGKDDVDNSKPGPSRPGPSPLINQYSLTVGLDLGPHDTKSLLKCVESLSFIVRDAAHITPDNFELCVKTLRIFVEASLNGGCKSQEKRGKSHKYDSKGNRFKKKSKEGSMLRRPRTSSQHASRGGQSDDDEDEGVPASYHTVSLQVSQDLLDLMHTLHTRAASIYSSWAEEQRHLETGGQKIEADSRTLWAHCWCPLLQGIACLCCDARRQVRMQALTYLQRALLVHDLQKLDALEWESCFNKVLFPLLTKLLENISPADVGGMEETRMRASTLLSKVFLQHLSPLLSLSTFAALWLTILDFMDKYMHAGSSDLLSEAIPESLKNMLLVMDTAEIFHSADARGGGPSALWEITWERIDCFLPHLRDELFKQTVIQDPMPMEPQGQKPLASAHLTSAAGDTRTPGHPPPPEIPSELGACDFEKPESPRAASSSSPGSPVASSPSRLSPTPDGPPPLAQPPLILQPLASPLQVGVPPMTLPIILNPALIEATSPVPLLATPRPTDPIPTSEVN
NUP153, P49790, UniProt P49790, whole entry: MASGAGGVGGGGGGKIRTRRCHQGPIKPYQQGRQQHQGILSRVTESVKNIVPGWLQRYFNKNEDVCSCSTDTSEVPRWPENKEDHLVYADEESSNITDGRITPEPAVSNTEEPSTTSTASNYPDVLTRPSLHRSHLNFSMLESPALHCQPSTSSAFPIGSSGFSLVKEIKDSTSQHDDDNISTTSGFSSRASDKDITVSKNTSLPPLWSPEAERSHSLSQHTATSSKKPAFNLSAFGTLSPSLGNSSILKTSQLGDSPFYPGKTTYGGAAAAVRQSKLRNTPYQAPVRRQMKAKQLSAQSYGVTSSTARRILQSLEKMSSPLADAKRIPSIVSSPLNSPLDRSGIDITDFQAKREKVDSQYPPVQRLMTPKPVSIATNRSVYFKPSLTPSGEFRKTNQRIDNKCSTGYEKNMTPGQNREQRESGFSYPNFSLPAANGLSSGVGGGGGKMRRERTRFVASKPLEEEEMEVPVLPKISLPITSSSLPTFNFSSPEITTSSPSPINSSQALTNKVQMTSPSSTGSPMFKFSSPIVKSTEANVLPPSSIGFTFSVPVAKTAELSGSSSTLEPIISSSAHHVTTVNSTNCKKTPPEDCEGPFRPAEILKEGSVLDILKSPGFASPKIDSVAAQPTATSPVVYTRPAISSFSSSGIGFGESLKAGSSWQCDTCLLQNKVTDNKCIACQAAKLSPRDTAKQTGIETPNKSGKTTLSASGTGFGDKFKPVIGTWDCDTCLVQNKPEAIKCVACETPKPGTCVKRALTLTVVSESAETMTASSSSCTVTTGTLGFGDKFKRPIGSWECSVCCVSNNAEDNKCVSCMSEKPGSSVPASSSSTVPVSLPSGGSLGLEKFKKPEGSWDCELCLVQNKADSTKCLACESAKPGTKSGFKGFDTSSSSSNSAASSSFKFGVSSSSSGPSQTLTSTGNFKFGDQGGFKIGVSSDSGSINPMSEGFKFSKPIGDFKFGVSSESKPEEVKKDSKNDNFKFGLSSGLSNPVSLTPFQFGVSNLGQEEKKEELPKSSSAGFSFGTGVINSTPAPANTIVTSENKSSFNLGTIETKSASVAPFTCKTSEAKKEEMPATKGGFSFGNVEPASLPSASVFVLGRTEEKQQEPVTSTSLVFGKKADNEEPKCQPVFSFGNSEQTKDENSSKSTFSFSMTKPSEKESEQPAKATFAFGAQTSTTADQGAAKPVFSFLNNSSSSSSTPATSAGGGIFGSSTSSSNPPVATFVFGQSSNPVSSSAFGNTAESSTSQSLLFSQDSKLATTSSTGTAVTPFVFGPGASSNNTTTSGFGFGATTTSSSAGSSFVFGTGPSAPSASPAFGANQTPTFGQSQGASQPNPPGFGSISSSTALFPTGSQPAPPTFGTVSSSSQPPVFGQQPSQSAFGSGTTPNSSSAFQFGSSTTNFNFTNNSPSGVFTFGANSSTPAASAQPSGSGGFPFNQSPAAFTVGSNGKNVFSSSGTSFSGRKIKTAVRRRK
PDIA3, P30101, UniProt P30101, whole entry: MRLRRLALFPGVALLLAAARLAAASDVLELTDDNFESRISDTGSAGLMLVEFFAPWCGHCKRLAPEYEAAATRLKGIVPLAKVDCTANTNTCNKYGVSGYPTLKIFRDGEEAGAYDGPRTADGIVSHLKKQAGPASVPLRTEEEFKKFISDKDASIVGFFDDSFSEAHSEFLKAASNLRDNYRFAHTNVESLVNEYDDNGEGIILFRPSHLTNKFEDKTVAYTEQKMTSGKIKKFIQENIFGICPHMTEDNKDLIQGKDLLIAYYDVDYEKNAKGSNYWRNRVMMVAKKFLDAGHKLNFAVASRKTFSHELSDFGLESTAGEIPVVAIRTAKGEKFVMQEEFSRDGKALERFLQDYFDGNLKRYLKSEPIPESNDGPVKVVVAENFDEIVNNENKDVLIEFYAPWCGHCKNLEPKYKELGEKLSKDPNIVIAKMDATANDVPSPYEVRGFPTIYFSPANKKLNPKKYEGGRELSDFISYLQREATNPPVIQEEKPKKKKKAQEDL

A further test addresses FAM83D, Q9H4H8. Here is the method: as §1
Another test addresses HERC5, Q9UII4. Here is the method: as §1
In the next test the target is HMGN4, O00479. The protocol:
as §1

For another test, the target named is IGF2BP3, O00425. The protocol: as §1
The next test deals with MUC19, Q7Z5P9. Here is the method: as §1
Substrate in test [2]: PCNP, Q8WW12
Here is the method: as §1

For the next test, the target named is SNRNP27, Q8WVK2. The protocol: as §1
The target in a further test is COX6B1, P14854. Here is the method:
as §1

The target in the next test is DCAF13, Q9NV06. Here is the method:
as §1

The target in a further test is NDUFS8, O00217. Here is the method: as §1
Another test has as its target NNT, Q13423. The protocol: as §1
The next test concerns the target RBM3, P98179. The protocol:
as §1

For another test, the target named is UFL1, O94874. The protocol:
as §1

Another test concerns the target ZC3H15, Q8WU90. Here is the method: as §1
Another test addresses COPS5, Q92905. Here is the method:
as §1

For a further test, the target named is EDC3, Q96F86. Here is the method:
as §1

In the next test the target is FIS1, Q9Y3D6. The protocol: as §1
The next test deals with GBF1, Q92538. Here is the method: as §1
The next test has as its target KTN1, Q86UP2. Here is the method:
as §1

The target of a further test is MYO15A, Q9UKN7. Here is the method:
as §1

For another test, the target named is ORC1, Q13415. Here is the method: as §1
The target of a further test is ORC3, Q9UBD5. Here is the method:
as §1

The next test concerns the target SCYL2, Q6P3W7. The protocol:
as §1

The target of a further test is STIP1, P31948. The protocol: as §1
The target in a further test is TTF2, Q9UNY4. The protocol: as §1
Another test addresses ZBTB11, O95625. The protocol: as §1
A further test addresses ZNF24, P17028. Here is the method:
as §1

A further test has as its target CTCF, P49711. Here is the method:
as §1

The target of another test is FBXW11, Q9UKB1. Here is the method:
as §1

Another test addresses MLF2, Q15773. Here is the method:
as §1

The next test has as its target NOP58, Q9Y2X3. The protocol: as §1
Another test deals with NUP153, P49790. Here is the method:
as §1

For a further test, the target named is ODF2, Q5BJF6. Here is the method: as §1
Another test has as its target PDIA3, P30101. The protocol: as §1
The next test has as its target PSMC2, P35998. Here is the method: as §1
The next test has as its target SF3B5, Q9BWJ5. Here is the method:
as §1

Another test addresses ZNF616, Q08AN1. The protocol: as §1

The list shows a part of the results. Only hits are listed; about a third recur on repeated control peptides.

Experimental findings from the supplement of paper PMC10032668 are described below.

For the molecule MAHEHGHEHGHHKME [NDUFB3], the “PRISMA enrichment of interactor (log2)” value in test [1] stood at 5.43; in the test with FAM83D, Q9H4H8, 4.87; with HERC5, Q9UII4 it was 4.44; in the test with HMGN4, O00479, 5.45; in the test with IGF2BP3, O00425, 5.64; in the test with MUC19, Q7Z5P9, 8.63. The “PRISMA enrichment of interactor (log2)” value in test [2] turned out to be 4.24; with SNRNP27, Q8WVK2, 4.29.

For MFCCAQCEEAKEKKD [PRR34-AS1], the “PRISMA enrichment of interactor (log2)” value was determined as 6 in the test with COX6B1, P14854; 3.91 with DCAF13, Q9NV06; 3.8 in the test with NDUFS8, O00217; 4.78 in the test with NNT, Q13423; 5.4 in the test with RBM3, P98179; 6.18 with UFL1, O94874. For the same molecule, the “PRISMA enrichment of interactor (log2)” value with ZC3H15, Q8WU90 came out at 7.49.

For the molecule RKVVKAHASLHGARL [IDI2-AS1], the “PRISMA enrichment of interactor (log2)” value was 4.29 in the test with COPS5, Q92905; 4.25 with EDC3, Q96F86; 3.96 with FIS1, Q9Y3D6; 4.79 with GBF1, Q92538; 4.68 with KTN1, Q86UP2; 5.31 with MYO15A, Q9UKN7. For the same molecule, the “PRISMA enrichment of interactor (log2)” value in the test with ORC1, Q13415 amounted to 5.81; in the test with ORC3, Q9UBD5 it was 3.9; with SCYL2, Q6P3W7 it was 6.45; with STIP1, P31948 it was 5.72; with TTF2, Q9UNY4 it was 5.79; in the test with ZBTB11, O95625, 5.18. Further, the “PRISMA enrichment of interactor (log2)” value in the test with ZNF24, P17028 came out at 4.57.

For the molecule QGPPPMSPSMTPSQT [PALLD], the “PRISMA enrichment of interactor (log2)” value with CTCF, P49711 stood at 4.42; in the test with FBXW11, Q9UKB1, 5.74; with MLF2, Q15773 it was 4.24; with MUC19, Q7Z5P9, 8.32; in the test with NOP58, Q9Y2X3, 4.52; with NUP153, P49790, 5.71. In addition, the “PRISMA enrichment of interactor (log2)” value with ODF2, Q5BJF6 was 10; with PDIA3, P30101 it was 10.7; with PSMC2, P35998, 5.71; in the test with SF3B5, Q9BWJ5, 5.44; in the test with ZNF616, Q08AN1, 4.69.
